# Library screening results

By UniProt entry, the sequences of proteins in these tests, tags left out.
UniProt E9BF75, entry or part of it: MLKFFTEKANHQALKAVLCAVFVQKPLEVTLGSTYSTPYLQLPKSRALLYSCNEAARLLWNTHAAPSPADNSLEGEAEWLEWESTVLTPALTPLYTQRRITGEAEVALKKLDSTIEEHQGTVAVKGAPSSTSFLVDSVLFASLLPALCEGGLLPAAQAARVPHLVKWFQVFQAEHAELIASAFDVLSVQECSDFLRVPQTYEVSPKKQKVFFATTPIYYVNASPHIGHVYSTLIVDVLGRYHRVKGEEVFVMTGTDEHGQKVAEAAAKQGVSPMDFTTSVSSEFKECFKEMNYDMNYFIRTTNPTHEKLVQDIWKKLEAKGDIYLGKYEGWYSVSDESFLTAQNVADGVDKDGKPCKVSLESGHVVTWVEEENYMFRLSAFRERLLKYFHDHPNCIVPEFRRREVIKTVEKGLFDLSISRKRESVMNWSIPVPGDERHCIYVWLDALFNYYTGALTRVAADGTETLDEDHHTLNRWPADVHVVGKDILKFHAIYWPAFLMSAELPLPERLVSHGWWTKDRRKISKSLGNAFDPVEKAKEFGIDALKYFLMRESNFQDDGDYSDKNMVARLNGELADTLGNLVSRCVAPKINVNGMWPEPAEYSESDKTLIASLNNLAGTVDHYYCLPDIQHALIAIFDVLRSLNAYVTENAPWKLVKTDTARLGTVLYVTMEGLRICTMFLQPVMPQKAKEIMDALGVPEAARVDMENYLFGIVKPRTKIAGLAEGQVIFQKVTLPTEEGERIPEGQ

A: 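Assay on Mycobacterium tuberculosis, filed only as a heat shock assay from Cornell; the read-out is not stated. The concentration is filed as 10 mM, unlikely as a test dose, so the dose is not known. Higher reads as stronger inhibition (inferred: compounds with an IC50 in retests scored well above the rest). About 69,000 compounds were tested under these conditions; 1.4% (about 930) showed 50% or more at least once.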
B: 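Primary screen of methionyl-tRNA synthetase; the read-out is not stated. Target: Methionyl-tRNA synthetase (putative), Leishmania donovani (UniProt E9BF75). The test concentration is not given. Values are per cent inhibition. About 68,000 compounds were tested under these conditions; 0.035% (about 24) showed 50% or more at least once.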
C: 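Whole-cell assay for inhibitors of Mycobacterium tuberculosis growth, labelled Cornell in the record; the read-out is not stated. The concentration is filed as 10 mM, unlikely as a test dose, so the dose is not known. The record gives no direction; compounds strong in two other growth screens of this library score well above the rest, so higher reads as stronger inhibition. About 53,000 compounds were tested under these conditions; 1.7% (about 900) showed 50% or more at least once.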

All values are in %.
The controls that fix the scale are not given in the record; negative values are as filed.
The compounds are a random part of those screened.
A dash means the value is not listed here; it may have been measured.

| # | structure | A | B | C |
|---|---|---|---|---|
| 1 | `Cc1ccc2cc(C(=O)N3CCC(Nc4cccnn4)CC3)[nH]c2c1` | -16.64% | 9.509% | - |
| 2 | `Cc1ccc(CNC(=O)CN2CCN(CC(O)c3ccco3)CC2)cc1` (stereo not given) | - | 19.61% | - |
| 3 | `CC(=O)Nc1cccc(Cn2nc(C)nc2C)c1` | -5.541% | 15.19% | - |
| 4 | `O=C(O)C(F)(F)F.O=C(O)C(F)(F)F.O=C(c1n[nH]c2c1CN(C1CCOCC1)CC2)N1CCCC1` | -9.294% | - | 3.098% |
| 5 | `COc1ccccc1Oc1ncccc1CNC(=O)[C@@H](N)[C@@H](C)O` | -15.48% | 15.36% | 3.021% |
| 6 | `CCNC(=O)NCCc1csc(N2CCCC2)n1` | -24.39% | 22.28% | 9.355% |
| 7 | `O=C(Cc1ccsc1)N1CCC(c2noc(-c3ccncc3)n2)CC1` | -14.33% | 12.86% | -25.15% |
| 8 | `CN(C)C(CNC(=O)NCCOc1ccccc1)c1ccco1` (stereo not given) | -17.95% | 16.38% | 24.81% |
| 9 | `COCCN1CCC2(CC1)C(=O)Nc1ccc(C(=O)NC(C)C)cc12.O=C(O)C(F)(F)F` | -30.6% | - | - |
| 10 | `[H][C@]12CN(C(=O)c3cnn(C)c3)C[C@@]1([H])OCCN(S(C)(=O)=O)C2` | 26.96% | - | -1.475% |
| 11 | `Cc1cc(NC(=O)CCN2CCCC2Cn2cccn2)no1` (stereo not given) | 3.884% | 10.83% | -8.59% |
| 12 | `Cc1ccc(CCNc2nc(-c3ccncc3)nc3c2CCNCC3)o1` | 6.799% | 15.46% | -9.278% |
| 13 | `c1ccc(-n2ccc(CNCC3CCCN3c3cccnn3)n2)cc1` (stereo not given) | 9.789% | 22.86% | -35.69% |
| 14 | `O=C(c1ccccc1)C1CCN(c2cncc(-n3cccn3)n2)CC1` | 11.93% | 0.5495% | -11.86% |
| 15 | `COCCN1CCO[C@H]2CN(C(=O)c3ccncc3F)C[C@H]21` | - | 15.22% | - |
| 16 | `O=C(O)C(F)(F)F.[H][C@@]12CCN(Cc3ccc(F)cc3)C[C@]1([H])[C@@H](CNS(C)(=O)=O)OC2` | 0.7663% | - | -7.03% |
| 17 | `COc1ccc(CNC(C)c2ccc(Cl)c(Cl)c2)c(OC)c1OC` (stereo not given) | 20.38% | 6.897% | 81.35% |
| 18 | `NCC(=O)N1CCC2(CC1)CN(C(=O)Cc1ccc(Cl)cc1)CCO2` | -20.17% | 12% | - |
| 19 | `N#Cc1ccc(C(=O)N2CCc3c(COCC4CC4)cncc3C2)cc1` | 25.82% | 2.078% | -8.942% |
| 20 | `O=C(Cn1ccnc1)N1C[C@@H]2CC[C@H](Oc3cccc(F)c3)[C@@H]2C1` | - | 19.79% | - |
| 21 | `Cn1cccc1C(=O)N1CCCC(Cn2cc(CO)nn2)C1` (stereo not given) | 2.409% | 4.375% | -8.68% |
| 22 | `Cc1nonc1NC(=O)C1SCCc2sccc21` (stereo not given) | 1.235% | 5.575% | -5.653% |
| 23 | `Cc1ccc(CS(=O)(=O)CC(=O)NCCCOC(C)C)cc1` | -14.11% | 21.02% | - |
| 24 | `COCCOc1ccc(NC(=O)C2CCCN(C(N)=O)C2)cn1` (stereo not given) | 11.38% | 3.286% | -22.53% |
| 25 | `O=C(CN1CCCS1(=O)=O)Nc1cccc(COC2CCCCC2)c1` | 1.019% | 9.524% | - |
| 26 | `COCCCS(=O)(=O)N1CCN(c2cccc(O)c2)CC1` | 13.36% | 13.64% | -2.286% |
| 27 | `Cc1noc(-c2ccc(N(C)Cc3cccnc3)nc2)n1` | -128.1% | 12.39% | - |
| 28 | `O=C1NC2(CCN(C(=O)c3ccc(Cl)cc3)CC2)CC1c1ccccc1` (stereo not given) | -10.14% | 14.89% | 4.824% |
| 29 | `Cc1csc(N2CCC(CCN3CCCC3=O)CC2)n1` | -33.82% | 23.53% | 24.97% |
| 30 | `COc1cc(C(=O)O)cc(I)c1OCC(=O)NCCc1ccccc1` | 7.46% | 7.619% | -12.44% |
| 31 | `CC(C)(C)c1nnc(NCc2ccc(F)cc2)o1` | 10.94% | 4.712% | 22.19% |
| 32 | `Cn1cccc1C(=O)N1CCc2c(CNS(C)(=O)=O)cncc2C1` | - | 10.68% | - |
| 33 | `Cc1cnn(CC2CCCN2C(=O)c2ccc(-n3cccn3)nc2)c1` (stereo not given) | -1.2% | 16.21% | - |
| 34 | `O=C(O)C(F)(F)F.O=C(c1n[nH]c2c1CCN(Cc1nccs1)C2)N1CCCC1` | 2.701% | - | 12.13% |
| 35 | `CNC(=O)c1ccc2c(c1)C1(CCN(CC(C)C)CC1)C(=O)N2.O=C(O)C(F)(F)F` | -1.984% | - | -23.6% |
| 36 | `Cc1ccc(C(=O)NS(=O)(=O)c2cccc3cnccc23)c(=O)[nH]1` | 8.729% | 11.11% | 21.68% |
| 37 | `CC(C)CCn1cc(C(C(=O)O)N2CCC(c3ccncc3)CC2)cn1` (stereo not given) | -14.13% | 7.572% | - |
| 38 | `Fc1cccc(-n2cccn2)c1NCc1nnc(C2CC2)o1` | 13.32% | 13.86% | -24.49% |
| 39 | `CCc1noc(CCC(=O)N2CCC(c3ccn[nH]3)C2)n1` (stereo not given) | -11.73% | 4.361% | -19.3% |
| 40 | `CC(SCCNS(=O)(=O)c1cnn(C)c1)c1cccc(F)c1` (stereo not given) | 3.958% | 10.51% | - |
| 41 | `CCN(Cc1ccc2c(c1)OCCO2)C(=O)Cn1cccnc1=O` | -28.56% | 21.1% | -20.47% |
| 42 | `Cc1ncsc1C(=O)NCc1cccnc1N(C)CCc1ccccn1` | -34.22% | 17.29% | - |
| 43 | `Cc1cc(C(=O)N2CCOCC2c2nc(C)c[nH]2)nc(O)n1` (stereo not given) | -6.405% | 8.385% | -16.79% |
| 44 | `Cc1cc2c(=O)n3c(nc2s1)CCN(C(=O)c1c(C)noc1C)CC3` | -4.469% | 13.59% | -12.78% |
| 45 | `Cn1ccc(CNC(=O)N2CCCC3(C2)OCCO3)c1` | -5.652% | 19.62% | 19.59% |
| 46 | `CCO[C@@H]1CO[C@@]2(CCCN(S(=O)(=O)c3cccnc3)C2)C1.O=C(O)C(F)(F)F` | -3.076% | - | 6.681% |
| 47 | `O=C(O)CCCC(=O)Nc1cnn(COc2ccc(F)cc2Cl)c1` | 9.254% | 25.56% | -24.84% |
| 48 | `CC(=O)N1CCN(Cc2nccs2)CC2(CC(=O)N(C)C2)C1.O=C(O)C(F)(F)F` (stereo not given) | -21.46% | - | 20.52% |
| 49 | `CCc1[nH]c2c(CNc3cncc(C(=O)OC)n3)cc(C)cc2c1C` | 0.7071% | 123% | 13.89% |
| 50 | `CN1CCOC[C@H]1c1nc(-c2ccncc2)c[nH]1` | -44.45% | 11.28% | 13.76% |
| 51 | `c1ccc(O[C@@H]2CN(Cc3nccs3)[C@@H]3CCCO[C@@H]32)nc1` | - | 21.48% | - |
| 52 | `Cn1cc(C(=O)N2CCCC(Cc3nccs3)C2)cn1` (stereo not given) | 9.255% | 17.13% | - |
| 53 | `COc1ncccc1CN1Cc2nnn(C)c2C(COCC2CC2)C1` (stereo not given) | - | 16.67% | - |
| 54 | `COCCCNC(=O)CN(C)C(=O)c1cc(C)sc1C` | 5.963% | 6.667% | 27.6% |
| 55 | `CNC(=O)C1(c2cnccn2)CCCN1C(=O)c1ccccc1C` (stereo not given) | -22.18% | 5.208% | -26.22% |
| 56 | `CC(NC(=O)Nc1cc(F)cc(F)c1)c1nc[nH]n1` (stereo not given) | 1.97% | 12.81% | - |
| 57 | `Cc1cnc(C(=O)N2CCCC3(CCN(c4cnn(C)c4)C3=O)C2)cn1` (stereo not given) | -33.43% | -8.75% | -8.899% |
| 58 | `O=C(NCCNC1CCCC1)c1cccs1` | -15.64% | 7.742% | -4.817% |
| 59 | `N#Cc1ncn(CCC(=O)Nc2ccc(F)c(F)c2)n1` | 5.979% | -3.067% | 34.8% |
| 60 | `COCCOc1ccc(NC(=O)N(CCCO)CC(C)(C)C)cn1` | -1.463% | 2.258% | -19.91% |
| 61 | `CCc1noc(CN(C)CC(c2cccs2)N2CCOCC2)n1` (stereo not given) | -8.104% | 18.44% | - |
| 62 | `O=C(NC[C@H]1C[C@@H]2CCN1C[C@@H]2CN1CCCCC1)Nc1ccccc1` | - | 5.495% | - |
| 63 | `NC(=O)C1CCN(CC(=O)N2CCCC2c2ccsc2)CC1` (stereo not given) | 12.8% | 5.072% | 4.96% |
| 64 | `Cc1cnc(N)c(C(=O)C2CCN(C(=O)c3cnc(C)cn3)CC2)c1` | -6.938% | 14.24% | 1.801% |
| 65 | `O=C(Cc1csc(-c2ccsc2)n1)N1CCN(c2cnccn2)CC1` | 1.979% | 15.76% | -12.71% |
| 66 | `NC(=O)C1(c2cnccn2)CCCN1Cc1cc2ccccc2o1` (stereo not given) | -20.69% | 20.21% | -32.35% |
| 67 | `Cc1cc(CN(C)C(=O)CNS(=O)(=O)c2cccs2)no1` | 0.356% | 8.362% | - |
| 68 | `Cc1cc(C)n(C2CN(Cc3ccccn3)C2)n1` | 9.012% | 8.169% | -9.481% |
| 69 | `O=C(O)C(F)(F)F.O=C(O)C(F)(F)F.O=C(O)C(F)(F)F.[H][C@]12C[C@H](C(=O)N3CCN(C)CC3)N(C)[C@@]1([H])CN(c1ncc(F)cn1)C2` | -1.715% | - | -6.268% |
| 70 | `COc1ccc(N2CCCN(C(=O)Cc3csc(C)n3)CC2)cc1` | -1.843% | 4.7% | 8.568% |
| 71 | `CN(CC1CCC1)C(=O)Nc1cccnc1-n1cncn1` | -7.999% | 14.03% | 29.98% |

5 of the entries, repeated:

structure,A,B,C
N#Cc1ccc(C(=O)N2CCc3c(COCC4CC4)cncc3C2)cc1,25.82%,2.078%,-8.942%
NC(=O)C1(c2cnccn2)CCCN1Cc1cc2ccccc2o1 (stereo not given),-20.69%,20.21%,-32.35%
CCc1noc(CCC(=O)N2CCC(c3ccn[nH]3)C2)n1 (stereo not given),-11.73%,4.361%,-19.3%
CC(=O)Nc1cccc(Cn2nc(C)nc2C)c1,-5.541%,15.19%,-
Cc1ncsc1C(=O)NCc1cccnc1N(C)CCc1ccccn1,-34.22%,17.29%,-

Data taken from ChEMBL document CHEMBL3988442, “University of Dundee, Small-Polar-MMV Screening Library” (2021).